Source: patent publication US20040265834A1

Molecular target: FGFR3
Assay: co-immunoprecipitation with anti-IL-17RLM serum from Cos7 cells co-expressing the two proteins

B1: human IL-17 receptor like molecule long form (hIL-17RLM-L) (receptor)
chain: CLNGSQLAVAAGGSGRARGADTCGWRGVGPASRNSGLYNITFKYDNCTTYLNPVGKHVIADAQNITISQYACHDQVAVTILWSPGALGIEFLKGFRVILEELKSEGRQCQQLILKDPKQLNSSFKRTGMESQPFLNMKFETDYFVKVVPFPSIKNESNYHPFFFRTRACDLLLQPDNLACKPFWKPRNLNISQHGSDMQVSFDHAPHNFGFRFFYLHYKLKHEGPFKRKTCEQEQTTEMTSCLLQNVSPGDYIIELVDDTNTTRKVMHYALKPVHSPWAGPIRAVAITVPLVVISAFATLFTVMCRKKQQENIYSHLDEESSESSTYTAALPRERLRPRPKVFLCYSSKDGQNHMNVVQCFAYFLQDFCGCEVALDLWEDFSLCREGQREWVIQKIHESQFIIVVCSKGMKYFVDKKNYKHKGGGRGSGKGELFLVAVSAIAEKLRQAKQSSSAALSKFIAVYFDYSCEGDVPGILDLSTKYRLMDNLPQLCSHLHSRDHGLQEPGQHTRQGSRRNYFRSKSGRSLYVAICNMHQFIDEEPDWFEKQFVPFHPPPLRYREPVLEKFDSGLVLNDVMCKPGPESDFCLKVEAAVLGATGPADSQHESQHGGLDQDGEARPALDGSAALQPLLHTVKAGSPSDMPRDSGIYDSSVPSSELSLPLMEGLSTDQTETSSLTESVSSSSGLGEEEPPALPSKLLSSGSCKADLGCRSYTDELHAVAPL
**Q.** With B1 as the binder, how does the binding read?
**A.** The binding was “no binding”.

Results are given in words; binding and its absence hold for the method and conditions named. In cells and extracts the contact can be indirect.
